## Percent effect of library compounds

Data taken from ChEMBL document CHEMBL3988442, “University of Dundee, Small-Polar-MMV Screening Library” (2021).

Each number is a percent effect as filed. The controls that fix the scale are not given in the record; negative values are as filed. This is an unselected part of the compounds tested. Two or more numbers in one place are separate tests of the same structure; such repeats can differ widely.

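Phenotypic screen: M. tuberculosis growth, cholesterol and DPPC medium, 4 days; the read-out is not stated. Tested at 50 µM. The record gives no direction; compounds that gave an IC50 in retests scored well above the rest, so higher reads as more growth inhibition. Of about 69,000 compounds tested this way, about 370 (0.54%) reached 50% or more in at least one test.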

{"structure": "CCn1cc(CN2CCC(c3[nH]ncc3S(C)(=O)=O)C2)cn1", "stereo": "stereo unspecified", "percent effect": -26.74}
{"structure": "COc1ccc(-c2cc(C[C@@H]3C[C@H](N(C)C)C3(C)C)no2)cc1", "percent effect": 10.41}
{"structure": "CC(Cn1cccn1)NC(=O)NCCN1CCc2ccccc2C1", "stereo": "stereo unspecified", "percent effect": 6.736}
{"structure": "O=C(O)C(F)(F)F.[H][C@@]12CN(C(=O)C3CCOCC3)C[C@@]1([H])N(Cc1ccncc1)C(=O)CO2", "percent effect": -3.506}
{"structure": "Cc1nc(C2CCCN2C(=O)CCCn2cncn2)no1", "stereo": "stereo unspecified", "percent effect": -15.04}
{"structure": "CCC(=O)N1CCC2(CC1)COCCN2Cc1ccc(F)cc1.O=C(O)C(F)(F)F", "percent effect": -15.63}
{"structure": "CCn1ccnc1CN1CCN(CCc2ccncc2)CC1C", "stereo": "stereo unspecified", "percent effect": -40.66}
{"structure": "Cc1cc(C)n(CC2CN(CCOc3ccccc3C#N)CCO2)n1", "stereo": "stereo unspecified", "percent effect": 0.9388}
{"structure": "COCC(C)N1CCN(CCc2ccc3c(c2)CCO3)CC1", "stereo": "stereo unspecified", "percent effect": -18.36}
{"structure": "CC(C)NC(=O)CN(C)C(=O)c1c(Br)c2ccccc2n1C", "percent effect": 8.557}
{"structure": "CN(C)c1cncc(C2CCN(CC(N)=O)CC2)n1", "percent effect": 6.734}
{"structure": "CC(NCc1c(C(C)C)nn(C)c1N1CCOCC1)C(N)=O", "stereo": "stereo unspecified", "percent effect": -31.25}
{"structure": "Nc1cc(-c2c[nH]nc2C2CCCN2S(=O)(=O)c2ccccc2)ccn1", "stereo": "stereo unspecified", "percent effect": "-6.598 & -11.55"}
{"structure": "Cc1n[nH]c(C)c1-c1nccnc1CC1CCNC1", "stereo": "stereo unspecified", "percent effect": "3.906 & 8.927"}
{"structure": "Cc1nc(C(=O)N(CC(=O)N(C)C)CC(F)(F)F)c2ccccn12", "percent effect": 12.29}
{"structure": "OC1(CNCc2cnc(N3CCOCC3)nc2)CCCCC1", "percent effect": 17.46}
{"structure": "Cc1cc(C)c2c(c1)C(NCc1c(C)nn(C)c1N(C)C)CCO2", "stereo": "stereo unspecified", "percent effect": -5.494}
{"structure": "CN(C)c1ncnc2c1CCN(c1cc(C(F)(F)F)ncn1)CC2", "percent effect": -9.88}
{"structure": "CCC1CN(CCCO)c2ccccc2O1", "stereo": "stereo unspecified", "percent effect": -1.969}
{"structure": "CCC1CCCN(S(=O)(=O)c2cnc3onc(C)c3c2)C1", "stereo": "stereo unspecified", "percent effect": 44.34}
{"structure": "COc1ccc(CNc2ncnc3c2NC(=O)CN3)cc1", "percent effect": -17.11}
{"structure": "CC(C)CCN(C)Cc1nc2c(cnn2C)c(=O)[nH]1", "percent effect": 7.451}
{"structure": "CC(=O)c1cccc(NC(=O)Cn2cnc(-c3cccs3)cc2=O)c1", "percent effect": 9.214}
{"structure": "Cc1nc(CC(=O)NCCNc2nccc(C(F)(F)F)n2)cs1", "percent effect": "-5.612 & 0.009433"}
{"structure": "COc1nn(C)cc1C(=O)N1CCC(c2ccccc2)C1", "stereo": "stereo unspecified", "percent effect": -25.85}
{"structure": "COc1ncccc1NC(=O)N(C1CC1)C(C)C(C)C", "stereo": "stereo unspecified", "percent effect": 7.053}
{"structure": "COc1cc(C)c(CNC(C)c2csc(C3CC3)n2)cc1OC", "stereo": "stereo unspecified", "percent effect": 16.66}
{"structure": "CC(C)c1cncnc1N1CC[C@H](N2CCOCC2)[C@H](CCCO)C1", "percent effect": 11.09}
{"structure": "CC(C)c1nccn1Cc1cc(C(=O)NCC(F)(F)F)n[nH]1", "percent effect": -1.541}
{"structure": "CC(=O)NCCCC(=O)NC(C)c1nnc2n1CCC2", "stereo": "stereo unspecified", "percent effect": 14.68}
{"structure": "COC(=O)c1ccc(NC(=O)NC2CCc3[nH]ncc3C2)cc1", "stereo": "stereo unspecified", "percent effect": -7.537}
{"structure": "Cc1cnc(CN(C)C2CCN(CC(=O)N(C)c3nccs3)C2)o1", "stereo": "stereo unspecified", "percent effect": -38.89}
{"structure": "COc1ccc(CN(C)CC2CCCN2c2cccnn2)cc1F", "stereo": "stereo unspecified", "percent effect": -55.13}
{"structure": "O=C(CN1CCCC(c2ccn[nH]2)C1)Nc1nc2c(s1)CCC2", "stereo": "stereo unspecified", "percent effect": 17.91}
{"structure": "Cn1ccc(C(=O)NC2CCC23CCN(C(=O)N2CCCC2)CC3)c1", "stereo": "stereo unspecified", "percent effect": -17.99}
{"structure": "CN(Cc1nnc(C2CC2)n1C)C1CCN(CCc2ccccc2)C1", "stereo": "stereo unspecified", "percent effect": "15.51 & -6.916"}
{"structure": "CNc1cc2c(nn1)CCN(C(=O)c1ccc3c(c1)OCO3)C2", "percent effect": -12.46}
{"structure": "CCn1nc(C)c(C(=O)N2CCC(Nc3ccc(C)nn3)CC2)c1C", "percent effect": -5.145}
{"structure": "Cc1sc(-n2cnnn2)c(C(=O)NC(C)C)c1C", "percent effect": -7.681}
{"structure": "OC1COCCN(Cc2cccc(N3CCOCC3)c2)C1", "stereo": "stereo unspecified", "percent effect": -3.353}
{"structure": "Cc1ncnc2c1CCN(CC1CCOC1)CC2.O=C(O)C(F)(F)F", "stereo": "stereo unspecified", "percent effect": "-17.49 & -2.366"}
{"structure": "Cc1nc(-c2ccncc2)nc(N(C)CCc2ccncc2)c1C", "percent effect": -6.693}
{"structure": "Cc1ccc(CN2Cc3nnn(C)c3C(COCC3CC3)C2)s1.O=C(O)C(F)(F)F", "stereo": "stereo unspecified", "percent effect": 11.95}
{"structure": "COC1CCN(S(=O)(=O)N2C[C@H](c3ccccc3)[C@@H](N)C2)CC1", "percent effect": 2.309}
{"structure": "COc1c(C2CCCN2Cc2csc(C(C)C)n2)c(C)nn1C", "stereo": "stereo unspecified", "percent effect": -34.31}
{"structure": "N#Cc1ccc(OCCOc2ccccc2C(=O)N2CCOCC2)cc1", "percent effect": -10.96}
{"structure": "CSC1(CNC(=O)N(C)Cc2ccc(C)s2)CCOCC1", "percent effect": -21.72}
{"structure": "NC(=O)Cn1cc(NC(=O)N2CCC(c3ccccc3)CC2)cn1", "percent effect": 19.15}
{"structure": "Cn1cc(C[C@H]2[C@H](O)CCN2CC2CCOCC2)cn1.O=C(O)C(F)(F)F", "percent effect": "17.48 & -11.16"}
{"structure": "Cc1cc(C(=O)N2CCN(Cn3cc(Cl)cn3)CC2)c(C)o1", "percent effect": -32.35}
{"structure": "COc1cc2[nH]c(=O)c(CN3CCC[C@@H]3C(N)=O)cc2c(OC)c1OC", "percent effect": -47.06}
{"structure": "O=C(c1cnc(Nc2ccccc2)nc1)N1CCCC2(CCNC2)C1", "stereo": "stereo unspecified", "percent effect": "5.505 & 2.053"}
{"structure": "Cc1cccc(=O)n1CCCNc1ncnc2c1CCNCC2", "percent effect": 9.361}
{"structure": "CN(C)CCN1CC(C(=O)NCc2cn3cccnc3n2)CC1=O", "stereo": "stereo unspecified", "percent effect": -3.175}
{"structure": "Cc1ncc2c(n1)CCN(Cc1nc(Cc3ccccc3)no1)C2", "percent effect": 5.635}

For reference, 5 entries once more:

CC(C)NC(=O)CN(C)C(=O)c1c(Br)c2ccccc2n1C gave 8.557%.
Cc1nc(-c2ccncc2)nc(N(C)CCc2ccncc2)c1C gave -6.693%.
COc1cc(C)c(CNC(C)c2csc(C3CC3)n2)cc1OC (stereo unspecified) gave 16.66%.
Cc1cccc(=O)n1CCCNc1ncnc2c1CCNCC2 gave 9.361%.
CCC1CCCN(S(=O)(=O)c2cnc3onc(C)c3c2)C1 (stereo unspecified) gave 44.34%.